Measurements reported in PubChem BioAssay AID1259275 (Sanger Institute, 2017).
Shown is one part, drawn at random, of 794 reagents. In the full data, 13 (1.6%) were called active. 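Calls mark knock-downs lethal by themselves, not drug synergy; drugs went in a day after transfection, with DMSO as vehicle.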 No viability above 1 is reported: the scale is capped. The record does not give: the amount of reagent, the time to read-out.

Screen: 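Kinome and custom colorectal gene library screened for lethal knock-downs and drug partners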 (primary screen)
Cell system: COLO320HSR human colorectal cancer cells
Reagents: siRNA pool against human genes
Treatment: anchor drug added one day after transfection: BYL719 at 1 µM, cetuximab at 5 µg/ml or trametinib at 10 nM; DMSO as vehicle arm
Measured: 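Viability averaged over replicates as a fraction of the non-targeting pool, a robust z-score for knock-down alone, and synergy scores with BYL719 (1 µM), cetuximab (5 µg/ml) or trametinib (10 nM)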
Scale: robust z-score, siRNA alone: higher = more viable cells; strongly negative means essential; viability, knock-down alone (DMSO): higher = more viable cells; synergy score with BYL719 and synergy score with cetuximab and synergy score with trametinib: higher = stronger combined killing with drug
Active means: 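a gene is called essential when its robust z-score without drug falls below -3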
Calls: active = essential (siRNA alone); inactive = no change (siRNA alone)

| Gene | robust z-score, siRNA alone | viability, knock-down alone (DMSO) (fraction of control) | synergy score with BYL719 | synergy score with cetuximab | synergy score with trametinib | Outcome |
| --- | --- | --- | --- | --- | --- | --- |
| CAMK2N1 | -1.26 | 0.821 | 0.0286 | -0.0575 | 0.0764 | inactive |
| PRKAB1 | 0.306 | 0.962 | -0.0404 | -0.00915 | -0.0295 | inactive |
| RNASEL | 0.726 | 1 | -0.0297 | -0.0893 | 0.0316 | inactive |
| CKMT1B | -0.201 | 0.916 | 0.0449 | -0.166 | -0.0554 | inactive |
| PRKAR1A | -0.252 | 0.912 | -0.141 | -0.0897 | -0.0184 | inactive |
| MAPK1 | -0.271 | 0.91 | -0.0946 | -0.112 | -0.0787 | inactive |
| HIPK2 | 0.726 | 1 | -0.296 | -0.0893 | -0.0259 | inactive |
| BMX | -1.07 | 0.838 | -0.315 | -0.229 | -0.184 | inactive |
| SF3B1 | -6.2 | 0.375 | -0.015 | -0.0425 | -0.00861 | active |
| KSR2 | 0.601 | 0.989 | 0.0151 | -0.0499 | -0.0129 | inactive |
| PI4KB | 0.726 | 1 | 0.0575 | 0.014 | -0.0259 | inactive |
| ATP23 | 0.726 | 1 | -0.168 | -0.0893 | -0.0176 | inactive |
| HCK | 0.07 | 0.941 | 0.0182 | -0.143 | -0.0836 | inactive |
| PLK1 | -6.29 | 0.367 | -0.0978 | -0.00595 | -0.0126 | active |
| MPP1 | 0.726 | 1 | -0.0519 | -0.0893 | -0.0259 | inactive |
| HIPK3 | 0.726 | 1 | -0.0531 | 0.0159 | 0.0739 | inactive |
| STK17B | 0.726 | 1 | -0.0446 | -0.0631 | -0.0259 | inactive |
| MAST3 | -0.653 | 0.875 | -0.03 | 0.00874 | -0.0132 | inactive |
| RPS6KA4 | -1.34 | 0.813 | -0.0623 | -0.244 | -0.0617 | inactive |
| DYRK2 | 0.279 | 0.96 | -0.24 | -0.126 | -0.0652 | inactive |
| AK5 | 0.158 | 0.949 | -0.139 | -0.0831 | -0.0759 | inactive |
| JAK1 | 0.726 | 1 | -0.158 | -0.0893 | -0.0259 | inactive |
| TTK | -1.03 | 0.841 | -0.24 | -0.137 | -0.101 | inactive |
| HK2 | -0.96 | 0.848 | -0.0933 | 0.0186 | 0.0207 | inactive |
| LTK | -0.0911 | 0.926 | -0.0822 | -0.112 | -0.0444 | inactive |
| GUCY2EP | -0.839 | 0.859 | -0.0191 | -0.133 | 0.0125 | inactive |
| NTRK3 | 0.726 | 1 | -0.161 | 0.0266 | -0.0259 | inactive |
| GATA3 | 0.705 | 0.998 | -0.103 | -0.0911 | -0.0145 | inactive |
| OXSR1 | 0.154 | 0.948 | -0.03 | -0.0221 | 0.00021 | inactive |
| TAF1 | 0.726 | 1 | 0.0228 | -0.0893 | -0.0259 | inactive |
| MST1R | -1.64 | 0.786 | -0.0899 | -0.103 | -0.152 | inactive |
| PKN2 | 0.467 | 0.977 | -0.223 | -0.00809 | -0.0487 | inactive |
| TWF1 | 0.726 | 1 | -0.241 | -0.0893 | -0.0259 | inactive |
| EFNA5 | 0.452 | 0.975 | -0.0579 | -0.112 | -0.0501 | inactive |
| ADCK1 | 0.13 | 0.946 | -0.108 | -0.138 | -0.00018 | inactive |
| TPK1 | -1.26 | 0.821 | 0.0666 | 0.0148 | -0.15 | inactive |
| EPHA3 | -0.396 | 0.899 | -0.296 | -0.182 | -0.0721 | inactive |
| PRKAB2 | 0.156 | 0.949 | 0.018 | 0.0426 | 0.0851 | inactive |
| PAK4 | -0.0422 | 0.931 | -0.0268 | -0.0603 | -0.0546 | inactive |
| PRKCB | -0.942 | 0.849 | -0.337 | -0.226 | -0.0959 | inactive |
| RIPK2 | 0.0361 | 0.938 | 0.0233 | -0.102 | -0.0257 | inactive |
| FER | 0.726 | 1 | -0.25 | -0.0893 | -0.0259 | inactive |
| HK3 | 0.649 | 0.993 | -0.232 | -0.0527 | -0.0327 | inactive |
| HASPIN | 0.461 | 0.976 | -0.0523 | -0.111 | 0.0337 | inactive |
| SYK | -1.01 | 0.843 | -0.0888 | -0.156 | -0.123 | inactive |
| CSNK1G1 | -1.11 | 0.834 | -0.124 | -0.195 | -0.0336 | inactive |
| PACSIN1 | -0.25 | 0.912 | -0.143 | -0.165 | -0.112 | inactive |
| CSNK1G2 | 0.604 | 0.989 | -0.066 | -0.0994 | 0.0206 | inactive |
| PRKG1 | 0.726 | 1 | 0.0245 | -0.0893 | -0.0238 | inactive |
| NME4 | 0.726 | 1 | -0.274 | -0.0893 | -0.0259 | inactive |
| PFKL | 0.726 | 1 | -0.296 | -0.0893 | 0.0264 | inactive |
| PRKG2 | -1.24 | 0.822 | -0.0868 | -0.0581 | -0.0539 | inactive |
| RBKS | 0.726 | 1 | -0.284 | -0.0893 | -0.0259 | inactive |
| PIP5K1B | 0.00741 | 0.935 | 0.000352 | -0.0457 | -0.0342 | inactive |
| RIPK1 | -1.37 | 0.811 | -0.0941 | -0.048 | -0.146 | inactive |
| RSKR | 0.202 | 0.953 | 0.0201 | -0.0625 | -0.0114 | inactive |
| MAPK14 | -1.04 | 0.841 | -0.00349 | 0.00345 | 0.0689 | inactive |
| CLK4 | -1.59 | 0.791 | -0.153 | -0.188 | -0.097 | inactive |
| PSTK | 0.726 | 1 | -0.145 | -0.0893 | -0.0259 | inactive |
| NR2F2 | -3.11 | 0.654 | -0.124 | -0.29 | -0.254 | active |
| MARK1 | 0.726 | 1 | -0.2 | -0.0893 | -0.0259 | inactive |
| MAP4K4 | 0.726 | 1 | -0.109 | 0.00602 | 0.01 | inactive |
| IRAK4 | 0.726 | 1 | -0.0625 | -0.0101 | -0.0259 | inactive |

Copied from the listing for reference:
| Gene | robust z-score, siRNA alone | viability, knock-down alone (DMSO) (fraction of control) | synergy score with BYL719 | synergy score with cetuximab | synergy score with trametinib | Outcome |
| --- | --- | --- | --- | --- | --- | --- |
| TAF1 | 0.726 | 1 | 0.0228 | -0.0893 | -0.0259 | inactive |
| MST1R | -1.64 | 0.786 | -0.0899 | -0.103 | -0.152 | inactive |
| PKN2 | 0.467 | 0.977 | -0.223 | -0.00809 | -0.0487 | inactive |
| TWF1 | 0.726 | 1 | -0.241 | -0.0893 | -0.0259 | inactive |
| EFNA5 | 0.452 | 0.975 | -0.0579 | -0.112 | -0.0501 | inactive |
| ADCK1 | 0.13 | 0.946 | -0.108 | -0.138 | -0.00018 | inactive |
| TPK1 | -1.26 | 0.821 | 0.0666 | 0.0148 | -0.15 | inactive |
